In patent US20160046678A1 (ZYNGENIA, published 2016):
No constants are given. Whether binding was seen depends on the method and setting. Some results given as binding are weak or reduced against the parent protein; the word gives no strength.

B1: EGB516 (peptide)
peptide: WSGWCEGVSEWSFCSGLI
B2: EGB474 (peptide)
peptide: WSGWCFYGTGWGYCYGLI
B3: EGB513 (peptide)
peptide: WSGWCLVGTQWSFCSGLI
B4: EGB497 (peptide)
peptide: WSGWCFSPAGWGHCYGLS
B5: EGB489 (peptide)
peptide: WSGWCETDRGWSFCSSPL
B6: EGB448 (peptide)
peptide: WSGYCEYQDRWAHCGGTPGQAGQGGGSWSGYCRTEGHWAHCGGSV
B7: EGB458 (peptide)
peptide: WSGYCEFQDHWGYCGNTE
B8: EGB491 (peptide)
peptide: WSGWCEGETQWYFCSGHL
B9: EGB509 (peptide)
peptide: WSGWCLLDAEWGHCSGLI
B10: EGB510 (peptide)
peptide: WSGWCLSNDGWGHCWGLM
B11: EGB504 (peptide)
peptide: WSGWCEYEGFWSFCSGNL
B12: EGB447 (peptide)
peptide: WSGYCEFEDHWDFCGTSR
B13: EGB462 (peptide)
peptide: WSGWCLYDAGWGYCSGLQ
B14: EGB496 (peptide)
peptide: WSGWCFSSSGWGFCGGLN
B15: EGB446 (peptide)
peptide: WSGWCFYGSWWDYCSGGH
B16: EGB478 (peptide)
peptide: WSGWCMGMSGWDHCRGLI
B17: EGB484 (peptide)
peptide: WSGWCFDGDGWGYCTGVS
B18: EGB451 (peptide)
peptide: WSGWCLYESGWGHCYGWI
B19: EGB495 (peptide)
peptide: LPPPCYWTTWGKECQMFD
B20: EGB507 (peptide)
peptide: WSGWCLGKAGWGHCGGLI
B21: EGB455 (peptide)
peptide: WSGWCLGETGWGHCSGMP
B22: EGB500 (peptide)
peptide: WSGWCLYEFGWGYCSGLI
B23: EGB505 (peptide)
peptide: WSGWCEGVLQWYFCSGHI
B24: EGB481 (peptide)
peptide: WSGWCLQGAGWGHCSGRI
B25: EGB519 (peptide)
peptide: WSGWCFFGDRWGHCHGQP
B26: EGB502 (peptide)
peptide: WSGWCEGELYWSYCSGYL
B27: EGB469 (peptide)
peptide: WSGWCFLDSGWGHCQGLI
B28: EGB503 (peptide)
peptide: WSGWCEYELSWSFCSGSL
B29: EGB460 (peptide)
peptide: WSGYCEYSDHWAHCGGSL
B30: EGB465 (peptide)
peptide: WSGYCEFKDHWDFCGHSA
B31: EGB490 (peptide)
peptide: WSGWCESELQWGFCSGLL
B32: EGB499 (peptide)
peptide: WSGWCLTKSGWGHCLGPT
B33: EGB494 (peptide)
peptide: WSGWCEYEHHWDFCSGHL
B34: EGB464 (peptide)
peptide: WSGWCFTEGVWGHCKGLG
B35: EGB471 (peptide)
peptide: WSGWCFFGASWGHCSGFP
B36: EGB488 (peptide)
peptide: WSGWCFYSTHWAQCKGGH
B37: EGB463 (peptide)
peptide: WSGYCEMQDHWDYCSGSI
B38: EGB501 (peptide)
peptide: WSGWCEYELHWSYCWGPL
B39: EGB487 (peptide)
peptide: WSGWCFFGSAWGHCHGFP
B40: EGB473 (peptide)
peptide: WSGYCEFKDHWDYCGGSE
B41: EGB459 (peptide)
peptide: WSGYCEFKDYWAHCSGSM
B42: EGB506 (peptide)
peptide: WSGWCEYDLHWSFCSGHL
B43: EGB486 (peptide)
peptide: WSGWCLSGAGWGYCSGLP
B44: EGB456 (peptide)
peptide: WSGYCEFKDHWAHCGGSV
B45: EGB452 (peptide)
peptide: WSGYCEYKYKWDHCGTSV
B46: EGB498 (peptide)
peptide: WSGWCLDRAGWGHCHGLI
B47: EGB477 (peptide)
peptide: WSGYCLMKDHWAHCGHSE
B48: EGB485 (peptide)
peptide: WSGWCLRSNGWDYCHGPT
B49: EGB453 (peptide)
peptide: WSGYCEFKDHWAHCGGSL
B50: EGB514 (peptide)
peptide: WSGWCEKEFLWTFCSGTI
B51: EGB515 (peptide)
peptide: WSGWCESDTHWSFCSGQL
B52: EGB450 (peptide)
peptide: WSGWCLGEAGWGHCRGLL
B53: EGB480 (peptide)
peptide: WSGWCFFGAGWGHCFGNP
B54: EGB482 (peptide)
peptide: WSGWCFNGVGWGHCFGLI
B55: EGB518 (peptide)
peptide: WSGWCLGLDGWDHCYGRP
B56: EGB492 (peptide)
peptide: WSGWCEYELQWSFCSGQL
B57: EGB508 (peptide)
peptide: WSGWCFFGSHWGHCFGSP
B58: EGB493 (peptide)
peptide: WSGWCEGEREWFFCSGHI
B59: EGB511 (peptide)
peptide: WSGWCLSGTGWGHCYGLH
B60: EGB470 (peptide)
peptide: WSGWCFNSNGWYQCGGLI
B61: EGB472 (peptide)
peptide: WSGWCFFGAGWDYCHGQP
B62: EGB483 (peptide)
peptide: WSGWCFYEAFWGHCTGPT
B63: EGB479 (peptide)
peptide: WSGYCEINGKWDYCSHSH
B64: EGB476 (peptide)
peptide: WSGYCEYKHHWAHCGTRH

Molecular target: ErbB2 (UniProt P04626)
Assay: MRD identification, Example 48

binding, binds:
B1
B2
B3
B4
B5
B6
B7
B8
B9
B10
B11
B12
B13
B14
B15
B16
B17
B18
B19
B20
B21
B22
B23
B24
B25
B26
B27
B28
B29
B30
B31
B32
B33
B34
B35
B36
B37
B38
B39
B40
B41
B42
B43
B44
B45
B46
B47
B48
B49
B50
B51
B52
B53
B54
B55
B56
B57
B58
B59
B60
B61
B62
B63
B64
